This data set can be described thus: general procedure: Fmoc solid-phase peptide synthesis; 2-chlorotrityl chloride resin; HOBt couplings; PyAOP/DIPEA or triphosgene/2,4,6-trimethylpyridine for last buil. Conditions: for cyclisation yield: cyclisation step.
Setting [1] is: whole synthesis, trifluoroacetate salt.
The mark [2] stands for this setting: late stage modification step, trifluoroacetate salt.

For “(1R,4S,7S,10S,13S,16R,19R)-10-(Aminomethyl)-7-cyclohexyl-13-[(1S)-1-hydroxyethyl]-4-isobutyl-3,16-dimethyl-18-oxa-3,6,9,12,15-pentaazabicyclo[17.8.0]heptacosane-2,5,8,11,14-pentone (trifluoroacetate salt)”, under setting [1], the isolated yield is 62%.
In the case of “(2S)-2,3-Diamino-N-[[(3R,6S,9S,12S,15S,18R,19R)-9-(aminomethyl)-12-cyclohexyl-19-hexyl-15-isobutyl-3,16,18-trimethyl-5,8,11,14,17-pentaoxo-1-oxa-4,7,10,13,16-pentazacyclononadec-6-yl]methyl]propanamide (trifluoroacetate salt)”, the step yield under setting [2] turned out to be 36% yield.
Regarding “(3R,6S,9S,12S,15S,18R,19R)-6-(((2-Azaspiro[3.3]heptan-6-yl)oxy)methyl)-9-(aminomethyl)-12-cycloheptyl-19-hexyl-3,16,18-trimethyl-15-propyl-1-oxa-4,7,10,13,16-pentaazacyclononadecane-5,8,11,14,17-pentaone”, the cyclisation yield (trifluoroacetate salt) stood at 39%. Besides, the step yield under setting [2] turned out to be 21%.
On to “(3S,6S,9S,12S,15S)-6-(Aminomethyl)-16-(4-butylbenzyl)-9-cyclohexyl-3-(hydroxymethyl)-12-isobutyl-13,15-dimethyl-1,4,7,10,13,16-hexaazacyclooctadecane-2,5,8,11,14-pentaone”, for which the step yield under setting [2] is on record as 24%.
With “(3S,6S,9S,12S,15S,18R)-6-(Aminomethyl)-3-((3-aminopropoxy)methyl)-15,16-dibutyl-9-cyclohexyl-12-isobutyl-13,18-dimethyl-1,4,7,10,13,16-hexaazacyclooctadecane-2,5,8,11,14-pentaone”, under setting [1], the isolated yield is 39% yield.
For the substance “(3S,6S,9S,12S,15S,18R)-6-(Aminomethyl)-3-((3-aminopropoxy)methyl)-15-butyl-9-cyclohexyl-16-(cyclopropylmethyl)-12-isobutyl-13,18-dimethyl-1,4,7,10,13,16-hexaazacyclooctadecane-2,5,8,11,14-pentaone”, the cyclisation yield (trifluoroacetate salt) is 30%. Besides, under setting [2], the “final purity (method not given)” value was “purity 87%”.
For the substance “(3S,6S,9S,12S,15S,18R)-6-(Aminomethyl)-9-cyclohexyl-16-(cyclopentylmethyl)-18-ethyl-3-((S)-1-hydroxyethyl)-12-isobutyl-13,15-dimethyl-1,4,7,10,13,16-hexaazacyclooctadecane-2,5,8,11,14-pentaone (trifluoroacetate salt)”, under setting [2], the step yield is recorded as 48%. The crude yield under setting [1] is given as 51% crude yield.
“(3S,6S,9S,12S,15S,18R)-6-(Aminomethyl)-9-cyclohexyl-18-(2-fluoroethyl)-16-hexyl-3-((S)-1-hydroxyethyl)-12-isobutyl-13,15-dimethyl-1,4,7,10,13,16-hexaazacyclooctadecane-2,5,8,11,14-pentaone”: under setting [2], the “final purity (method not given)” value is “purity 87%” and the step yield was 37%.
Take “(3S,6S,9S,12S,15S,18S)-6-(Aminomethyl)-16-butyl-9-cyclohexyl-3-((S)-1-hydroxyethyl)-18-(hydroxymethyl)-12-isobutyl-13,15-dimethyl-1,4,7,10,13,16-hexaazacyclooctadecane-2,5,8,11,14-pentaone”: the “purity (crude or final not stated)” value (late stage modification step, LCMS method B, TFA salt) was found to be 82%.
Take “Benzyl N-[[(3R,6S,9 S,12S,15S,18R,19R)-6-(aminomethyl)-12-cyclohexyl-19-hexyl-15-isobutyl-3,16,18-trimethyl-5,8,11,14,17-pentaoxo-1-oxa-4,7,10,13,16-pentazacyclononadec-9-yl]methyl]carbamate”: the step yield under setting [2] was determined as 100% yield.
On the same count and under the same terms, the result for “Benzyl-N-[[(3R,6S,9S,12S,15S,18R,19R)-6-(2-amino-2-oxo-ethyl)-12-cycloheptyl-19-hexyl-3,16,18-trimethyl-5,8,11,14,17-pentaoxo-15-prop yl-1-oxa-4,7,10,13,16-pentazacyclononadec-9-yl]methyl]carbamate” reads 66.4%; that for “N-[[(3R,6S,9S,12S,15S,18R,19R)-9-(Aminomethyl)-12-cyclohexyl-19-hexyl-15-isobutyl-3,16,18-trimethyl-5,8,11,14,17-pentaoxo-1-oxa-4,7,10,13,16-pentazacyclononadec-6-yl]methyl]methanesulfonamide (trifluoroacetate salt)”, 41% yield.
The same measure, in the same setting: in the case of “tert-Butyl (NZ)—N-[[[3-[[(3R,6S,9S,12S,15S,18R,19R)-9-(aminomethyl)-12-cycloheptyl-3,16,18-trimethyl-5,8,11,14,17-pentaoxo-15-propyl-19-(spiro[3.3]heptan-2-ylmethyl)-1-oxa-4,7,10,13,16-pentazacyclononadec-6-yl]methoxy]cyclobutyl]amino]-(tert-butoxycarbonylamino)methylene]carbamate” it was 88.8% yield; in that of “tert-Butyl N-[3-[3-[[(3R,6S,9S,12S,15S,18R,19R)-9-(benzyloxycarbonylaminomethyl)-19-[[(1S,5R)-3-bicyclo[3.2.1]octanyl]methyl]-12-cycloheptyl-3,16,18-trimethyl-5,8,11,14,17-pentaoxo-15-propyl-1-oxa-4,7,10,13,16-pentazacyclononadec-6-yl]methoxy]propylamino]propyl]carbamate”, 42.9%; in that of “tert-Butyl N-[3-[[(3R,6S,9S,12S,15S,18R,19R)-9-[(tert-butoxycarbonylamino)methyl]-12-cycloheptyl-19-hexyl-3,16,18-trimethyl-5,8,11,14,17-pentaoxo-15-propyl-1-oxa-4,7,10,13,16-pentazacyclononadec-6-yl]methylamino]propyl]carbamate”, 46.3%.
Consider “tert-Butyl N-[(1S)-2-[[(3R,6S,9S,12S,15S,18R,19R)-9-(benzyloxycarbonylaminomethyl)-12-cyclohexyl-19-hexyl-15-isobutyl-3,16,18-trimethyl-5,8,11,14,17-pentaoxo-1-oxa-4,7,10,13,16-pentazacyclononadec-6-yl]methylamino]-1-[(tert-butoxycarbonylamino)methyl]-2-oxo-ethyl]carbamate”, for which the step yield (coupling step, trifluoroacetate salt) was 100% yield.
Consider “tert-Butyl N-[[6-[[(3R,6S,9S,12S,15S,18R,19R)-9-[(tert-butoxycarbonylamino)methyl]-12-cycloheptyl-19-hexyl-3,16,18-trimethyl-5,8,11,14,17-pentaoxo-15-propyl-1-oxa-4,7,10,13,16-pentazacyclononadec-6-yl]methylamino]pyrimidin-4-yl]methyl]carbamate”, for which the step yield under setting [2] is listed as 83% yield.
For the substance “tert-Butyl N-[[(3R,6S,9S,12S,15S,18R,19R)-9-(benzyloxycarbonylaminomethyl)-12-cyclohexyl-19-hexyl-15-isobutyl-3,16,18-trimethyl-5,8,11,14,17-pentaoxo-1-oxa-4,7,10,13,16-pentazacyclononadec-6-yl]methyl]carbamate”, where the note is “on linear precursor, trifluoroacetate salt”, the cyclisation yield came out at 55% yield.

The record behind these values is patent US12358951 (dated 2025).
